Laboratory results: PubChem BioAssay AID743121 (NCATS, 2013)
In all, the deposit lists about 26,000 reagents; below is a part drawn at random. 167 of all reagents (0.63%) count as active. 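Calls are per gene from RSA p-values that are not deposited; an individual active-marked siRNA can sensitise only weakly.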 Reagents against one gene are numbered here. Further read-outs or replicates are left out here.

Test: 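Knock-downs that sensitise breast cancer cells to camptothecin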 (primary screen)
Cell system: MDA-MB-231 cells, a human breast cancer line
Reagents: single siRNA against human genes, 20 nM siRNA (0.8 pmol per well)
Duration: 120 h (drug added 48 h after transfection, read 72 h later)
Conditions: camptothecin 20 nM (about EC30) for 72 h; vehicle 0.1% DMSO in parallel plates
Detection: 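CellTiter-Glo ATP signal, scaled to control siRNA as percent viability; sensitisation given as log2 of untreated divided by camptothecin-treated viability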
Direction: log2 vehicle/camptothecin viability: higher = stronger sensitisation to camptothecin
Rule for the call: 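Each gene scored by redundant siRNA activity (RSA) over its individual siRNA ratios; a gene is called active at p < 0.001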

log2 vehicle/camptothecin viability, by gene and reagent
NODAL (nodal growth differentiation factor): #1 0.086 inactive; #2 -0.00286 inactive; #3 -0.174 inactive; #4 -0.407 inactive
BLM (BLM RecQ like helicase): #1 -0.0275 inactive; #2 0.108 inactive; #3 -2.64 inactive
ADGRE3 (adhesion G protein-coupled receptor E3): #1 -0.243 inactive; #2 -0.413 inactive; #3 0.396 inactive; #4 0.0719 inactive
ADM2 (adrenomedullin 2): #1 -0.0285 inactive; #2 -0.46 inactive; #3 0.276 inactive; #4 -0.348 inactive
TUBB4A (tubulin beta 4A class IVa): #1 -0.218 inactive; #2 -0.156 inactive; #3 -0.495 inactive; #4 -0.324 inactive
TK1 (thymidine kinase 1): #1 -0.154 inactive; #2 -0.01 inactive; #3 0.0885 inactive; #4 -0.176 inactive
CLEC4F (C-type lectin domain family 4 member F): #1 -0.0474 inactive; #2 0.126 inactive; #3 0.701 inactive; #4 0.225 inactive
CDK10 (cyclin dependent kinase 10): #1 -0.417 inactive; #2 0.549 inactive; #3 -0.0209 inactive; #4 -0.524 inactive
RRBP1 (ribosome binding protein 1): #1 -0.263 inactive; #2 -0.0882 inactive; #3 -0.0747 inactive; #4 -0.672 inactive
DUT (deoxyuridine triphosphatase): #1 -0.443 inactive; #2 0.0907 inactive; #3 -0.115 inactive; #4 -0.0723 inactive
PRKACG (protein kinase cAMP-activated catalytic subunit gamma): #1 0.162 inactive; #2 -0.465 inactive; #3 -0.307 inactive; #4 -0.212 inactive
TGFBR2 (transforming growth factor beta receptor 2): #1 0.104 inactive; #2 -0.134 inactive; #3 -0.0595 inactive; #4 -0.0199 inactive
DHRS1 (dehydrogenase/reductase 1): #1 0.194 inactive; #2 0.0861 inactive; #3 -0.219 inactive
IFNE (interferon epsilon): #1 0.149 inactive; #2 0.115 inactive; #3 -0.537 inactive; #4 -0.149 inactive
SIGLEC17P (sialic acid binding Ig like lectin 17, pseudogene): #1 -0.279 inactive; #2 -0.0643 inactive; #3 -0.0137 inactive; #4 -0.182 inactive
GPR6 (G protein-coupled receptor 6): #1 -0.123 inactive; #2 -0.293 inactive; #3 -0.631 inactive; #4 0.166 inactive
POU2F1 (POU class 2 homeobox 1): #1 0.142 inactive; #2 0.409 inactive; #3 0.106 inactive
BTN3A1 (butyrophilin subfamily 3 member A1): #1 0.38 inactive; #2 -0.341 inactive; #3 -0.211 inactive; #4 0.106 inactive
